Literature values in US9861096B2, “Biodegradable chemical delivery system” (Cornell University, priority 2008, dated 2018).
At least one compound was matched to its structure with a doubt left.

Details: cited from earlier work

CCN(CC)c1ccc2c(-c3ccccc3C(=O)O)c3ccc(=[N+](CC)CC)cc-3oc2c1.[Cl-] [Rhodamine B]
Log Kow: 1.85
